# Reference: patent US20240407413A1, “Concentrates Compromising Stevia Blends and Uses” (The Coca-Cola Company, priority 2018, published 2024)
# Columns and labels:
# [1] = Sensory evaluation for diet lemon lime carbonated beverage; details: 4° C.
# [2] = Sensory evaluation for diet cola carbonated beverage; details: 4° C.
structure (smiles),measurement,setting,value
"C=C1C[C@@]23CCC4[C@](C)(C(=O)OC5OC(CO)C(O)C(OC6OC(CO)C(O)C(O)C6O)C5OC5OC(CO)C(O)C(O)C5O)CCC[C@@]4(C)[C@@H]2CCC1(OC1OC(CO)C(O)C(OC2OC(CO)C(O)C(O)C2O)C1OC1OC(CO)C(O)C(O)C1O)C3 (stereo partly drawn) [Reb-M, 13-[(2-O-β-D-glucopyranosyl-3-O-β-D-glucopyranosyl-β-D-glucopyranosyl)oxy] ent kaur-16-en-19-oic acid-[(2-O-β-D-glucopyranosyl-3-O-β-D-glucopyranosyl-β-D-glucopyranosyl) ester]]","Average Panelist Rating (1 = most preferred, 5 = least preferred)",[1]; 500 ppm in finished beverage,4.1
same,"Average Panelist Rating (1 = most preferred, 5 = least preferred)",[1]; 512 ppm in finished beverage,4.2
same,"Average Panelist Rating (1 = most preferred, 5 = least preferred)",[2]; 500 ppm in finished beverage,2.6
same,"Average Panelist Rating (1 = most preferred, 5 = least preferred)",[2]; 512 ppm in finished beverage,2.8
